Results of single-concentration screens

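Phenotypic screen: M. tuberculosis growth, glucose 7H9 medium, 3 days; the read-out is not stated. Tested at 50 µM. Higher reads as more growth inhibition (inferred: compounds with an IC50 in retests scored well above the rest). Of about 69,000 compounds tested this way, about 760 (1.1%) reached 50% or more in at least one test.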

Results are given as percent effect.
The controls that fix the scale are not given in the record; negative values are as filed.
This is an unselected part of the compounds tested.
Two or more numbers in one place are separate tests of the same structure; such repeats can differ widely.

| compound | Percent Effect |
|---|---|
| `CCc1nc(C2CCCN2CCCc2nc3ccccc3o2)no1` (stereo not given) | -7.335 |
| `CCC(C)NC(=O)c1sccc1-n1cnnn1` (stereo not given) | -21.42 |
| `COC1CCN(C(=O)Nc2cc(C(F)(F)F)c[nH]c2=O)CC1` | -2.219 |
| `O=C(CN1CCCC(c2ccn[nH]2)C1)Nc1nc2c(s1)CCCC2` (stereo not given) | 50.22 |
| `Cn1cc(N2CCC(NC(=O)c3c(F)cccc3Cl)C2=O)cn1` (stereo not given) | 3.685 and -10.92 |
| `CN(CCc1ccccc1)Cc1c(C2CC2)[nH]c2ncccc12` | -12.76 |
| `Cc1noc(C2(C)CCCN(C(=O)c3cccnc3)C2)n1` (stereo not given) | 20.24 |
| `CN1CC(C)(C)CN(C(=O)CCc2ccccc2)CC1=O` | -10.93 |
| `[H][C@]12CC[C@]([H])(CN(Cc3[nH]cnc3C)C1)N(Cc1cc(C)no1)C2` | 7.455 and 2.734 |
| `Cc1ccc(CN2CCc3ncnc(-c4ccncc4)c3CC2)o1.O=C(O)C(F)(F)F.O=C(O)C(F)(F)F` | 18.11 |
| `O=C(NCCCn1nc2ccccn2c1=O)NCc1ccccc1` | 12.5 |
| `CCCn1[nH]c(CNc2ccccc2)nc1=O` | 19.55 |
| `O=C(N1CCCC1)N1Cc2nccn2CC(COc2cccnc2)C1.O=C(O)C(F)(F)F` (stereo not given) | -0.1649 |
| `CCN(C(=O)c1cc2c([nH]c1=O)CCCC2=O)C1CCCCC1` | -24.22 |
| `COCc1nc(C(=O)N2CCCC2c2cc(C)no2)cs1` (stereo not given) | 6.291 |
| `CC(NC(=O)CCC(=O)c1cccs1)c1nnc2n1CCCCC2` (stereo not given) | 0.9743 |
| `CCC[C@@H]1CN(c2ncnc3sccc23)C[C@H]1NS(C)(=O)=O` | 28.93 |
| `CC1(C)OCC2(CO1)CN(C(=O)c1cccc3ccccc13)C2` | 2.117 and 15.06 |
| `CN(CCO)C[C@@H]1CN(C2CCN(c3ccccc3Cl)CC2)C[C@@H]1CO` | 44.93 |
| `Cc1ccc(C(=O)NCCCN(C)S(C)(=O)=O)c(=O)[nH]1` | -17.06 |
| `OC1(CN2CCCCC2)CCN(Cc2c[nH]c(CC3CCCC3)n2)C1` (stereo not given) | 24.04 |
| `O=S(=O)(Nc1ccc2c(c1)OCCO2)N1CCCCC1` | 31.42 |
| `O=C(c1ccccn1)C1CCCN(c2nccc(CCC(F)(F)F)n2)C1` (stereo not given) | 14.51 |
| `CCS(=O)(=O)N1CCC2(CC1)CC(CC(=O)NC1CC1)c1ccccc12` (stereo not given) | 0.4983 |
| `CC(C)c1noc(CCNC(=O)NCC2Cc3ccccc3O2)n1` (stereo not given) | -27.68 |
| `CN(CC(=O)NCCC#N)C(c1ccccc1)c1ccc(F)cc1` (stereo not given) | -21.32 and 0.9741 |
| `CN(CC(=O)Nc1cc(-n2nnnc2C2CC2)ccc1F)C1CCC1` | 6.142 and 19.24 |
| `Cc1ccccc1OCC1CCCN(C(=O)Cc2c[nH]c(=O)[nH]c2=O)C1` (stereo not given) | 4.206 and 4.418 |
| `Cc1nn(C)c(N(C)C)c1CNCc1cccc(Cn2ccnc2)c1` | -13.85 and -0.9809 |
| `CS(=O)(=O)NC1CCN(C(=O)c2coc(CN3CCOCC3)c2)CC1` | -10.09 |
| `CC1CCCN(CCNC(=O)c2ccn(-c3ccc(F)cc3)n2)C1` (stereo not given) | 1.885 |
| `O=C(O)C(F)(F)F.O=C(O)C(F)(F)F.[H][C@@]12C[C@H](C(=O)NCC3CC3)N(C)[C@]1([H])CN(Cc1c(C)noc1C)C2` | -17.84 |
| `CCCc1nc(C(C)(C)NC(=O)C2CC(=O)N(CCOC)C2)no1` (stereo not given) | -28.13 and -0.4786 |
| `CNS(=O)(=O)c1ccc(C(=O)N2CCCC2c2ccncc2)o1` (stereo not given) | -25.57 |
| `Cc1ccc(-c2cn3c(n2)CO[C@@H](CNCc2cccnc2)C3)cc1` | 0.2042 and -8.871 |
| `COc1cc(C(C)=O)ccc1SCC(=O)Nc1ccc(C)cn1` | 11.67 |
| `Cc1nnc2n1CCN(C(C(=O)NC1CC1)c1ccc(F)cc1)C2` (stereo not given) | -7.852 |
| `CCN1CCC(NC(=O)NC2CCOc3ccc(Br)cc32)CC1` (stereo not given) | -7.917 |
| `O=C(CCc1ccccc1)NCC1CCN(Cc2ccsc2)CC1` | 7.972 |
| `O=C(NC1CC1)C(c1ccccc1)N1CCn2c(nnc2C2CC2)C1` (stereo not given) | 6.455 |
| `O=C(C[S+]([O-])Cc1cccc(C(F)(F)F)c1)NC1CCCC1` (stereo not given) | 23.67 |
| `CN(C)CCNC(=O)c1cc2c(s1)CCN2S(C)(=O)=O` | 6.502 |
| `Cc1nccn1C1CCCN(C(=O)CCOCC(F)(F)F)C1` (stereo not given) | -10.84 |
| `Cc1ccc2c(CC(=O)N3C[C@@H](O)[C@H](N(C)C)C3)coc2c1` | -11.77 |
| `Cc1cccc(C(C(=O)NC(C)(C)CN2CCOCC2)N(C)C)c1` (stereo not given) | 8.29 |
| `CC(C)S(=O)(=O)C(C)C(=O)NCc1cccc(N2CCCCC2=O)c1` (stereo not given) | -26.97 |
| `O=C(c1cc[nH]n1)N1CCc2ccc(S(=O)(=O)N3CCOCC3)cc2C1` | 6.376 |
| `CCc1nc2c(c(C)c(C)n2Cc2cccnc2)c(N)c1C` | 2.392 and -8.647 |
| `CC(Nc1cccc(CN2CCOC2=O)c1)C(=O)Nc1ccccc1F` (stereo not given) | -20.81 |
| `Cc1ccccc1C(C(=O)N1CCN(C(=O)c2ccc[nH]2)CC1)N(C)C` (stereo not given) | -25.32 |
| `COCCOCCCC(=O)N1CCC(Cc2ccccc2OC)CC1` | 7.44 |
| `Cc1cc(N2CCC(O)(CN(C)C)C2)c2cc3c(cc2n1)OCO3` (stereo not given) | -28.28 |
| `CCC(=O)c1ccccc1NN1c2ccccc2C(=O)C1(C)OC` (stereo not given) | 11.06 |
| `c1ccc(-c2nnc([C@H]3CCN(C4CCC4)C3)o2)cc1` | 24.94 and 31.71 |
| `CN1CCC2(CC1)CN(C(=O)c1cccc3cccnc13)CCN2C` | 21.9 |
| `COc1cccc([C@H]2CN(C(=O)c3nnc4n3CCCC4)C[C@@H]2N)c1` | -5.563 and -41 |
| `Cc1n[nH]c(C)c1C1COCCN1C(=O)c1ccc2c(c1)CCO2` (stereo not given) | -2.114 |
| `[H][C@@]12CS(=O)(=O)C[C@]1([H])N(C(=O)c1cc(C(C)C)no1)CCN2CC=C(C)C` | 21.79 |
| `CN(CC1COc2ccccc2O1)C(=O)CCn1cncn1` (stereo not given) | 6.301 |
| `COCc1ncc(CN2CC[C@@](C)(O)[C@@H](Cc3ccccc3)C2)cn1` | -3.371 |
| `Cc1cc(C)n(CC(C)CNC(=O)N(C)Cc2ccco2)n1` (stereo not given) | -5.747 |
| `CN(C)S(=O)(=O)N1CCCC(c2nccnc2-c2cccc(Cl)c2)C1` (stereo not given) | 7.924 |
| `CN1CCC(N(CCc2ccccc2)C(=O)c2cc[nH]c2)CC1` | 26.59 |

The values are deposited in ChEMBL (CHEMBL3988442, “University of Dundee, Small-Polar-MMV Screening Library” (2021)).